Experimental data: PubChem BioAssay AID1259425 (University of Nebraska Medical Center, 2018)

Purpose: 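Compare each knockdown with KSR1 silencing using changes in marker transcripts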 (primary screen)
System: HCT116 human colon cancer cells
Reagent: siRNA pool against human genes, 50 nM siRNA
Read-out: 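mRNA of six signature genes measured together by branched-DNA assay after 50 nM siRNA pool, blank removed, divided by geometric mean of two housekeeping genes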
Reading the numbers: BNIP3L mRNA: higher = more BNIP3L transcript after knockdown; NDRG1 mRNA: higher = more NDRG1 transcript after knockdown; BNIP3 mRNA: higher = more BNIP3 transcript after knockdown; ALDOC mRNA: higher = more ALDOC transcript after knockdown; ACSL5 mRNA: higher = more ACSL5 transcript after knockdown
Here is one part, drawn at random, of about 14,000 reagents tested. No sequences are given here. The record does not give: the time to read-out.

| Target gene | PubChem SID | BNIP3L mRNA, set 1 | NDRG1 mRNA, set 1 | BNIP3 mRNA, set 1 | ALDOC mRNA, set 1 | ACSL5 mRNA, set 1 |
| --- | --- | --- | --- | --- | --- | --- |
| TREM1 (triggering receptor expressed on myeloid cells 1) | SID364001142 | 0.085 | 0.602 | 0.265 | 0.0148 | 0.515 |
| SYT11 (synaptotagmin 11) | SID364004703 | 0.25 | 0.135 | 0.576 | 0.0603 | 0.363 |
| MAN1A1 (mannosidase alpha class 1A member 1) | SID363996776 | 0.0702 | 0.0795 | 0.316 | 0.0169 | 0.0728 |
| USP26 (ubiquitin specific peptidase 26) | SID364003691 | 0.0579 | 0.109 | 0.217 | 0.0157 | 0.175 |
| SGPP1 (sphingosine-1-phosphate phosphatase 1) | SID364003443 | 0.0918 | 0.0866 | 0.253 | 0.0244 | 0.157 |
| PFKFB3 (6-phosphofructo-2-kinase/fructose-2,6-biphosphatase 3) | SID363995537 | 0.106 | 0.149 | 0.223 | 0.00553 | 0.255 |
| GAMT (guanidinoacetate N-methyltransferase) | SID363991492 | 0.115 | 0.0692 | 0.167 | 0.0263 | 0.162 |
| SORBS2 (sorbin and SH3 domain containing 2) | SID363994683 | 0.0623 | 0.239 | 0.128 | 0.0285 | 0.171 |
| ARID5B (AT-rich interaction domain 5B) | SID364005254 | 0.109 | 0.0307 | 0.362 | 0.00913 | 0.0682 |
| MEGF9 (multiple EGF like domains 9) | SID364005591 | 0.134 | 0.345 | 0.278 | 0.0157 | 0.0946 |
| BRD3 (bromodomain containing 3) | SID363998013 | 0.186 | 0.377 | 0.601 | 0.0846 | 0.208 |
| MRPS22 (mitochondrial ribosomal protein S22) | SID364001544 | 0.125 | 0.157 | 0.344 | 0.0311 | 0.395 |
| RARRES1 (retinoic acid receptor responder 1) | SID363994044 | 0.109 | 0.23 | 0.347 | 0.0427 | 0.12 |
| THRAP3 (thyroid hormone receptor associated protein 3) | SID363996054 | 0.0981 | 0.144 | 0.352 | 0.0213 | 0.208 |
| OR2C1 (olfactory receptor family 2 subfamily C member 1) | SID363998263 | 0.183 | 0.233 | 0.315 | 0.0287 | 0.11 |
| WRAP53 (WD repeat containing antisense to TP53) | SID364000765 | 0.116 | 0.503 | 0.404 | 0.0591 | 0.18 |
| DNAJB5 (DnaJ heat shock protein family (Hsp40) member B5) | SID363998188 | 0.133 | 0.171 | 0.315 | 0.0327 | 0.134 |
| SEMA6D (semaphorin 6D) | SID364001870 | 0.124 | 0.18 | 0.303 | 0.0298 | 0.26 |
| FGL2 (fibrinogen like 2) | SID363997465 | 0.068 | 0.0948 | 0.307 | 0.00893 | 0.161 |
| GRIK2 (glutamate ionotropic receptor kainate type subunit 2) | SID364002247 | 0.0695 | 0.197 | 0.256 | 0.0174 | 0.181 |
| POSTN (periostin) | SID363997283 | 0.0637 | 0.0776 | 0.179 | 0.00864 | 0.129 |
| ELK4 (ETS transcription factor ELK4) | SID363993185 | 0.125 | 0.0646 | 0.389 | -0.00185 | 0.132 |
| TPTE (transmembrane phosphatase with tensin homology) | SID363998429 | 0.0497 | 0.0974 | 0.28 | 0.0281 | 0.0868 |
| ANKMY2 (ankyrin repeat and MYND domain containing 2) | SID364001607 | 0.181 | 0.391 | 0.415 | 0.0535 | 0.613 |
| ATP6V1D (ATPase H+ transporting V1 subunit D) | SID363999780 | 0.129 | 0.269 | 0.515 | 0.158 | 0.167 |
| TMC6 (transmembrane channel like 6) | SID363997956 | 0.162 | 0.124 | 0.338 | 0.0269 | 0.223 |
| PRX (periaxin) | SID364004950 | 0.0563 | 0.0612 | 0.206 | 0.00929 | 0.136 |
| HAMP (hepcidin antimicrobial peptide) | SID364002062 | 0.105 | 1.22 | 0.256 | 0.055 | 0.281 |
| SEL1L (SEL1L adaptor subunit of SYVN1 ubiquitin ligase) | SID363996002 | 0.121 | 0.0589 | 0.28 | 0.0396 | 0.0567 |
| APOA4 (apolipoprotein A4) | SID363991805 | 0.0714 | 0.146 | 0.0927 | 0.0233 | 0.17 |

Individual results from the entries so far:
For “ACSL5 mRNA, set 1”, GRIK2 (glutamate ionotropic receptor kainate type subunit 2) [SID364002247] is entered as 0.181
Value for WRAP53 (WD repeat containing antisense to TP53) [SID364000765] in “BNIP3 mRNA, set 1”: 0.404
Under “BNIP3 mRNA, set 1”, APOA4 (apolipoprotein A4) [SID363991805] shows 0.0927

Continued.
| Target gene | PubChem SID | BNIP3L mRNA, set 1 | NDRG1 mRNA, set 1 | BNIP3 mRNA, set 1 | ALDOC mRNA, set 1 | ACSL5 mRNA, set 1 |
| --- | --- | --- | --- | --- | --- | --- |
| BET1L (Bet1 golgi vesicular membrane trafficking protein like) | SID364000171 | 0.0589 | 0.0571 | 0.33 | 0.0405 | 0.0725 |
| CLDN7 (claudin 7) | SID363992590 | 0.0866 | 0.144 | 0.378 | 0.0198 | 0.166 |
| HOXC5 (homeobox C5) | SID364001280 | 0.119 | 0.0997 | 0.316 | 0.00661 | 0.0713 |
| MAP1LC3A (microtubule associated protein 1 light chain 3 alpha) | SID364004027 | 0.19 | 0.3 | 0.385 | 0.0508 | 0.173 |
| ARHGAP29 (Rho GTPase activating protein 29) | SID363995768 | 0.0714 | 0.356 | 0.245 | 0.0185 | 0.0976 |
| HVCN1 (hydrogen voltage gated channel 1) | SID364003950 | 0.168 | 0.378 | 0.285 | 0.0514 | 0.455 |
| ARPP19 (cAMP regulated phosphoprotein 19) | SID363997416 | 0.0808 | 0.138 | 0.225 | 0.0151 | 0.138 |
| EDF1 (endothelial differentiation related factor 1) | SID363994855 | 0.234 | 0.299 | 1.21 | 0.0344 | 0.167 |
| MYBPC1 (myosin binding protein C1) | SID363993639 | 0.159 | 0.178 | 0.35 | 0.0441 | 0.32 |
| NUDT5 (nudix hydrolase 5) | SID363998607 | 0.14 | 0.245 | 0.381 | 0.0241 | 0.117 |
| HPD (4-hydroxyphenylpyruvate dioxygenase) | SID363993354 | 0.138 | 0.369 | 0.167 | 0.00715 | 0.209 |
| SPINK1 (serine peptidase inhibitor Kazal type 1) | SID363994263 | 0.123 | 0.126 | 0.202 | 0.0293 | 0.239 |
| CASP2 (caspase 2) | SID363992509 | 0.124 | 0.251 | 0.376 | 0.0233 | 0.098 |
| ACTRT3 (actin related protein T3) | SID364004004 | 0.13 | 0.181 | 0.213 | 0.0243 | 0.165 |
| ADAMTS4 (ADAM metallopeptidase with thrombospondin type 1 motif 4) | SID363996035 | 0.0708 | 0.124 | 0.212 | 0.0151 | 0.135 |
| IPPK (inositol-pentakisphosphate 2-kinase) | SID364002529 | 0.101 | 0.149 | 0.677 | 0.0218 | 0.371 |
| ZMIZ2 (zinc finger MIZ-type containing 2) | SID364003632 | 0.174 | 0.527 | 0.25 | 0.0483 | 0.329 |
| SLC5A4 | SID363998666 | 0.108 | 0.324 | 0.321 | 0.0521 | 0.151 |
| PKN1 (protein kinase N1) | SID363993899 | 0.125 | 0.19 | 0.339 | 0.00382 | 0.181 |
| KERA (keratocan) | SID363997766 | 0.0703 | 0.263 | 0.37 | 0.0176 | 0.255 |
